Experiment [1] addresses GFP–RAPH1^F2 (RAPH1 aa 535–868) (UniProt Q70E73). The experiment in a line: co-IP; GFP-Trap beads, lysates of MDA-MB-231 cells expressing GFP-tagged bait; 20 mM HEPES pH 7.4, 75 mM NaCl, 2 mM EDTA, 1% NP-40; 1 h at 4°C; endogenous MYO10 detected by western blotting.
Experiment [2] concerns the target RAPH1–GFP lacking the F5 fragment (RAPH1^Δ536-587) (UniProt Q70E73). Described as above.
The next experiment concerns the target full-length RAPH1–GFP (UniProt Q70E73). Described as above.
Experiment [3] has as its target GST–RAPH1^F2 (RAPH1 aa 535–868) (UniProt Q70E73). The experiment can be described thus: pull-down; recombinant GST–RAPH1^F2 or GST alone on beads, in MDA-MB-231 cell lysates; MYO10 detected by western blotting; only the target purified.

Amino acid sequences for entries named in this document (tags omitted). A change or cut given only in a name is not applied to a line headed by its entry. Chains listed by the source or under a name are the forms on record and can include a tag or linker. Residues count along the entry.
UniProt Q70E73: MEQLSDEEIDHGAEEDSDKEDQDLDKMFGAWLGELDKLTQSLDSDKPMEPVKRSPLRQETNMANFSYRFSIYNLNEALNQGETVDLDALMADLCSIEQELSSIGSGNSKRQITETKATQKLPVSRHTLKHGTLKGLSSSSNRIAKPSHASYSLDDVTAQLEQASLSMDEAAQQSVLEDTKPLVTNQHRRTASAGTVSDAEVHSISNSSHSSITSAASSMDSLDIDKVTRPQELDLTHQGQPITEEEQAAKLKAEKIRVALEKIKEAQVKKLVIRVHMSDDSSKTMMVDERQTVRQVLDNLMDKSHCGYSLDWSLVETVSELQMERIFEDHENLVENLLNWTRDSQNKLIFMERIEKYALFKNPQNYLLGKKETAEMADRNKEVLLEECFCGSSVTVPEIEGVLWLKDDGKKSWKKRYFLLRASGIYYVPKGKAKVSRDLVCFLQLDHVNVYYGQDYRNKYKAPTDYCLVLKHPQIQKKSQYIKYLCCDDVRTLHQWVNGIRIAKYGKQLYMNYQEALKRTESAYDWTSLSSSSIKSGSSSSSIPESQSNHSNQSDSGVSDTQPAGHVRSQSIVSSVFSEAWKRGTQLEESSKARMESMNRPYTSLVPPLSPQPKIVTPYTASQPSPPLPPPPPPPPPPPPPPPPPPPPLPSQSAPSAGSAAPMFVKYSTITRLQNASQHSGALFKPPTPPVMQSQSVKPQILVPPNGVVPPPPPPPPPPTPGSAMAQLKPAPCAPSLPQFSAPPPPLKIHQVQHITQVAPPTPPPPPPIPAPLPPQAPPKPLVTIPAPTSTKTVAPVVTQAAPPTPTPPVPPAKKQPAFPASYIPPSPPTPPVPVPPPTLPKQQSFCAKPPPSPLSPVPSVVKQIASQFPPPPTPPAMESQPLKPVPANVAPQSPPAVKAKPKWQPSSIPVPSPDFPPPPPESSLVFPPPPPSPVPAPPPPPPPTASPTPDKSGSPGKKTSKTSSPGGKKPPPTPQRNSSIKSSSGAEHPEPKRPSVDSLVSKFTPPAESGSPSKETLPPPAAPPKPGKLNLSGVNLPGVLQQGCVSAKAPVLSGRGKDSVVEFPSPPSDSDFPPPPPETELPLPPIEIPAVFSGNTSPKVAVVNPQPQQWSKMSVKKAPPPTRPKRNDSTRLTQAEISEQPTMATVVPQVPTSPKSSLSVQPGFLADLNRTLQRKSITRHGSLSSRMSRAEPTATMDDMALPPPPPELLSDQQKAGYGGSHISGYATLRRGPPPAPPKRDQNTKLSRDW
GST–RAPH1^F2 (RAPH1 aa 535–868): residues 535-868 of Q70E73
RAPH1–GFP lacking the F5 fragment (RAPH1^Δ536-587) (Q70E73, form named): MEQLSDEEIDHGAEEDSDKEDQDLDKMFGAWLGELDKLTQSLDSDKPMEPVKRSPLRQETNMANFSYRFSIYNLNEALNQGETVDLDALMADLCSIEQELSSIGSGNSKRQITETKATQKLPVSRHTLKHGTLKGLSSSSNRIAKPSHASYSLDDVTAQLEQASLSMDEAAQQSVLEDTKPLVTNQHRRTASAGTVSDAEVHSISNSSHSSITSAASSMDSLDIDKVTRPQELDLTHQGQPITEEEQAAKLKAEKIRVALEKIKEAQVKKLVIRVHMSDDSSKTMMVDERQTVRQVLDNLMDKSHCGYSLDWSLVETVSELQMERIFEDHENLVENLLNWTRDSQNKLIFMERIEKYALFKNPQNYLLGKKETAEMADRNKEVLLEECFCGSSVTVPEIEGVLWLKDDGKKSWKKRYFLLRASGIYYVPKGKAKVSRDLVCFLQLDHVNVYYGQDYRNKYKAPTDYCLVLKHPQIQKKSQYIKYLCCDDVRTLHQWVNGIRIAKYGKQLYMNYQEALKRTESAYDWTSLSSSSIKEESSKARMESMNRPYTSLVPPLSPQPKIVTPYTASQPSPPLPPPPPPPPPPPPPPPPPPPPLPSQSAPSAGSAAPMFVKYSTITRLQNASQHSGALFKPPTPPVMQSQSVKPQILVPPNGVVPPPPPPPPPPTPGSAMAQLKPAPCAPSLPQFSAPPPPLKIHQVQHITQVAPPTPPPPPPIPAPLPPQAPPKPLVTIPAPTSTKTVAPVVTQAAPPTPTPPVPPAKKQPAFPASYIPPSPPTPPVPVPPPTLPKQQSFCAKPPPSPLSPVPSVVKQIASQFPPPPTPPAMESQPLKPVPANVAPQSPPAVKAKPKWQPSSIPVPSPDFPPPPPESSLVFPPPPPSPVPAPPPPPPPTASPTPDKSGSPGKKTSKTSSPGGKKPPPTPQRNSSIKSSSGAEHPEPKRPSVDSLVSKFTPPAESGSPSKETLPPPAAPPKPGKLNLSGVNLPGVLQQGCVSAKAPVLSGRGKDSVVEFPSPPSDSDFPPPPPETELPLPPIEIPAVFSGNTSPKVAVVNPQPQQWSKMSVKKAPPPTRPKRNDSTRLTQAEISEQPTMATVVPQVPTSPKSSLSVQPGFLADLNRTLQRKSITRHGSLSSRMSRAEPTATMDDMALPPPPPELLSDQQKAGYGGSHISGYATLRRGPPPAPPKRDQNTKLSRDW
UniProt Q9HD67: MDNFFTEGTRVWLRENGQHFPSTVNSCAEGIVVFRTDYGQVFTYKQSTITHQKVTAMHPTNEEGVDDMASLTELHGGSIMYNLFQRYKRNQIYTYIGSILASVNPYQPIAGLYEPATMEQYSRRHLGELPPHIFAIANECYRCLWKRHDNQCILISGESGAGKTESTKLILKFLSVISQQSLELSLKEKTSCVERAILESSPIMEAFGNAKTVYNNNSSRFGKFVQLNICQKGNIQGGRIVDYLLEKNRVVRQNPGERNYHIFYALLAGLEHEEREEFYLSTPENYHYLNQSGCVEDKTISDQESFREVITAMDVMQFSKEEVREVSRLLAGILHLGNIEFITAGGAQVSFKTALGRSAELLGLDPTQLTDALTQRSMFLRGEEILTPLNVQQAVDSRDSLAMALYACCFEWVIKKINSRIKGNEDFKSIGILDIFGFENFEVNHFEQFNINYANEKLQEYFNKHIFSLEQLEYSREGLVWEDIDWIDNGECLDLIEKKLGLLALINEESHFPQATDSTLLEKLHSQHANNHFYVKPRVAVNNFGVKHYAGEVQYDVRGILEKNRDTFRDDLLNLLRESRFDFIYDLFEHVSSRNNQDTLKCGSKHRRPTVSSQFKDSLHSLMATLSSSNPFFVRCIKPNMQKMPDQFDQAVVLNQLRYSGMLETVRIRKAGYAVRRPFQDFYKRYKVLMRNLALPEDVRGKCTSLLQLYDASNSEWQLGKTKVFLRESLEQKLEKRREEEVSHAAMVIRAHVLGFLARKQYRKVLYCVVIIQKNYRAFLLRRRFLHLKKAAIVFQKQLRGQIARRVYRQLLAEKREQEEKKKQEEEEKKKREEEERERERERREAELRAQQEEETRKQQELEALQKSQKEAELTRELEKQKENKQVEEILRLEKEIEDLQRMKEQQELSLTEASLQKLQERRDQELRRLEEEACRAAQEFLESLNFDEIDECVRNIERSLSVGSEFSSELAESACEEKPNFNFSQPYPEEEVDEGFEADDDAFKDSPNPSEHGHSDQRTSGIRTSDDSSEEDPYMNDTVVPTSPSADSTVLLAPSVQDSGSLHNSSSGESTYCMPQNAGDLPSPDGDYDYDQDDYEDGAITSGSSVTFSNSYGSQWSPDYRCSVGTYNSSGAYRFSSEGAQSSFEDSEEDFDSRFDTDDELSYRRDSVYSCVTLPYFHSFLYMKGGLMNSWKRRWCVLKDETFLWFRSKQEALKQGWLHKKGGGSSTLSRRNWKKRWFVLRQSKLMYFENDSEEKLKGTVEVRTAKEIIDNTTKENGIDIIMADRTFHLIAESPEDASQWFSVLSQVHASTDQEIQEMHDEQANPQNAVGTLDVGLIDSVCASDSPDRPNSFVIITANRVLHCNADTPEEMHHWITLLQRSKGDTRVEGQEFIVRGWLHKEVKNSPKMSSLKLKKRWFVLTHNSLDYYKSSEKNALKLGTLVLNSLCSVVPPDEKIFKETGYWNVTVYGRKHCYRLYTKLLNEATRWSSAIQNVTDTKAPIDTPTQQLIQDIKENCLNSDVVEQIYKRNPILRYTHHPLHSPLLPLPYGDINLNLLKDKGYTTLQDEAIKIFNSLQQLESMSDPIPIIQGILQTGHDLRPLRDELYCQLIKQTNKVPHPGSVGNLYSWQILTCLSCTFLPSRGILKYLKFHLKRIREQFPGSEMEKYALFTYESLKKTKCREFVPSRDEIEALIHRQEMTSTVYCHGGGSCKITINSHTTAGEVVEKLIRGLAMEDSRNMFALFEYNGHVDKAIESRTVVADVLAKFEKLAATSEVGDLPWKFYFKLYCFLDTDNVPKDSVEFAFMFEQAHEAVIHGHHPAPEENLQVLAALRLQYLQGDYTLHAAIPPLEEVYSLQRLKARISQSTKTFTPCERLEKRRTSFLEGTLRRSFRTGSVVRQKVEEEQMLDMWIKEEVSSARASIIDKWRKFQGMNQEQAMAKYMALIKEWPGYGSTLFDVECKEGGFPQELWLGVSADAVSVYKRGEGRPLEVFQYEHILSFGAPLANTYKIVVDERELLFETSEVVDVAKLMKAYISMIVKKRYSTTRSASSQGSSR

No constants are given. Whether binding was seen depends on the method and setting. In cells and extracts the contact can be indirect. Some entries that bind do so weakly or less than the wild type.

As for “Myosin-X (MYO10), endogenous in MDA-MB-231 cells (from UniProt Q9HD67 1-2058)”, the binding result is recorded as “binds” in experiment [1], “binds weakly” in experiment [2], “binds” with full-length RAPH1–GFP and “binds” in experiment [3].

Values taken from paper PMC10022686.
